Results are given in words; binding and its absence hold for the method and conditions named. Binding seen in cells or lysates may run through a third protein.
Target: GST-PIM
Assay: pull-down; GST fusion proteins bound to glutathione sepharose beads as baits, incubated with third instar larval brain extracts for 1 h at 4 °C in 20 mM Hepes KOH, 20 mM NaF, 0.8% NP40; western blot with anti-Dm0 or anti-LamC; only the target purified

binding: no binding
B1: A/C-type lamin C (LamC) (protein, UniProt Q03427 1-621)
chain: MSARRVTLNTRVSRASTSTPVGGASTSSRVGATSPTSPTRTSRQQEKEELQHLNDRLACYIDRMRNLENENSRLTQELNLAQDTVNRETSNLKAVYEKELAAARKLLDETAKEKAKLEIDIKRLWEENDDLKPRLDKKTKEATVAENNARLYENRYNEVNGKYNQSLADRKKFEDQAKELALENERLRRQLDDLRKQLEAETLARVDLENQNQSLREELAFKDQVHTQELTETRSRRQIEISEIDGRLSRQYEAKLQQSLQELRDQYEGQMRINREEIELLYDNEIQNLKAAANRAAQGSALATEEVRLMRTKIDGLNAKLQNLEDTNAGLNARIRELENLLDTERQRHNQYIASLEAELQRMRDEMAHQLQEYQGLMDIKVSLDLEIAAYDKLLCGEERRLNIESPGRPTTDSGISSNGSHLTASASSRSGRVTPSGRRSATPGISGSSAVKRRRTVIDESEDRTLSEYSVNAAAKGDLEIIEADVEGRFIKLHNKGTEEINLTGWQLTRIAGDEELAFKFSRGSKVLGGASVTIWSVDAGTAHDPPNNLVMKKKWPVANSMRSVLANADKEDVASYDRVRANVSSHTSRHRSSGTPSTGFTLGSGAGSTGVRSLFSLLF
